In publication doi:10.1101/2024.04.17.589979 one finds binding data, which are given here for three molecules.

Chains of the proteins cited; added tags and fusions are not shown. Lines headed by an entry give the natural chain unless they say otherwise; changes in a name come on top. Residues count along the entry.
UniProt P08514: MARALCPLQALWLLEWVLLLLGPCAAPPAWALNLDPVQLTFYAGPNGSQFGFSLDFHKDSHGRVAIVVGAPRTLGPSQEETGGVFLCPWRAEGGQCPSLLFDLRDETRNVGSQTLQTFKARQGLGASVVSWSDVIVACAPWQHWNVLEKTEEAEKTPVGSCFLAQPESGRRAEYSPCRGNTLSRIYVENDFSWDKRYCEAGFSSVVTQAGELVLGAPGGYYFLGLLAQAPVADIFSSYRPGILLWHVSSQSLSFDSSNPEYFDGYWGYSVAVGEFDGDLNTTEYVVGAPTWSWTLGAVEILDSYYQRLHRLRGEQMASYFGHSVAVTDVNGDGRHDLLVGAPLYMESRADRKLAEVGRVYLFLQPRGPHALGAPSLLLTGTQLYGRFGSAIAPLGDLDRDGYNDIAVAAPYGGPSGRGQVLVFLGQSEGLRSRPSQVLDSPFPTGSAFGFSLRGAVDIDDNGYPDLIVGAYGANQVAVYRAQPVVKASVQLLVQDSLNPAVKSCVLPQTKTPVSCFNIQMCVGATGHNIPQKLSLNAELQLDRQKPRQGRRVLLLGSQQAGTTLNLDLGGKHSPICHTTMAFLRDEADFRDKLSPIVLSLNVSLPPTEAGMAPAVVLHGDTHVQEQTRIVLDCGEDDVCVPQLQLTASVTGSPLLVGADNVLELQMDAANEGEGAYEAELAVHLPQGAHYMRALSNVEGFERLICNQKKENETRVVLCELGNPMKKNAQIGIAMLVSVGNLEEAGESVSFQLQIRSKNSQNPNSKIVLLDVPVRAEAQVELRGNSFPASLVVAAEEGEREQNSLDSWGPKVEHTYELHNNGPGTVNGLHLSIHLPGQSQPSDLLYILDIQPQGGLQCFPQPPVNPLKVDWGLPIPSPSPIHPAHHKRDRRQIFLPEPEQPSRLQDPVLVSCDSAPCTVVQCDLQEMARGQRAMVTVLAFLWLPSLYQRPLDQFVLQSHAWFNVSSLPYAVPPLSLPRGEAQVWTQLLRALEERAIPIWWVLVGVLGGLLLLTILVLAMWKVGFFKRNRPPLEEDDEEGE
UniProt Q13444, residues 421-508: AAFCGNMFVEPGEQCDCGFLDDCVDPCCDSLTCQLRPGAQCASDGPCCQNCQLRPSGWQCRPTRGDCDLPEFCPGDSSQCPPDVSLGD

In experiment [1] the target is soluble recombinant integrin αIIbβ3 (ectodomain) (UniProt P08514). The experiment is described as follows: ELISA.
The target in experiment [2] is T1, Fibrinogen γ-chain C-terminal residues 390-411 fused to GST (γC390-411).
T1 sequence: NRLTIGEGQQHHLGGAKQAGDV
The experiment is described as follows: ELISA.

In experiment [3] the target is recombinant integrin αIIbβ3 on CHO cells (αIIbβ3-CHO) (UniProt P08514). The experiment is described as follows: flow cytometry on cells.

No constants are given. Whether binding was seen depends on the method and setting. Some results given as binding are weak or reduced against the parent protein; the word gives no strength. For part of these data: Sequences can lack the tags named with a protein.

Consider “ADAM-15 disintegrin domain fused to GST (from UniProt Q13444 421-508) (domain or fragment)”, for which, in experiment [1], the binding result is recorded as “binds”.
As for “soluble recombinant integrin αIIbβ3 (ectodomain) (from UniProt P08514 32-993; P05106 27-718) (receptor)”, the binding result in experiment [2] is “binds”.

B1: FITC-labelled γC390-411 (domain or fragment)
chain: NRLTIGEGQQHHLGGAKQAGDV
modifications: FITC label, site not stated
On to B1, for which the binding entry in experiment [3] is on record as “binds”.
